From the supplement of paper PMC12823440, “Inhibitors supercharge kinase turnover through native proteolytic circuits” (Nature, 2025)
Counter-ions that a name gives are not always drawn. Some of the results follow. Hit calls seldom repeat between salt and free forms of one compound.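 In K562 cells expressing nanoluciferase-fused kinases, luminescence was recorded at 4 h intervals between 2 and 18 h, normalized as percent of control with DMSO at 100% and a positive control at 0%. A significant (2 sigma) signal drop marks a time point as decreased. The authors' rule for a hit is not shown and takes in more than the number of time points.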

Protein sequences, listed by entry. Tags and fused reporters are not part of them. Lines headed by an entry give the natural chain unless they say otherwise; changes in a name come on top.
UniProt Q9Y616: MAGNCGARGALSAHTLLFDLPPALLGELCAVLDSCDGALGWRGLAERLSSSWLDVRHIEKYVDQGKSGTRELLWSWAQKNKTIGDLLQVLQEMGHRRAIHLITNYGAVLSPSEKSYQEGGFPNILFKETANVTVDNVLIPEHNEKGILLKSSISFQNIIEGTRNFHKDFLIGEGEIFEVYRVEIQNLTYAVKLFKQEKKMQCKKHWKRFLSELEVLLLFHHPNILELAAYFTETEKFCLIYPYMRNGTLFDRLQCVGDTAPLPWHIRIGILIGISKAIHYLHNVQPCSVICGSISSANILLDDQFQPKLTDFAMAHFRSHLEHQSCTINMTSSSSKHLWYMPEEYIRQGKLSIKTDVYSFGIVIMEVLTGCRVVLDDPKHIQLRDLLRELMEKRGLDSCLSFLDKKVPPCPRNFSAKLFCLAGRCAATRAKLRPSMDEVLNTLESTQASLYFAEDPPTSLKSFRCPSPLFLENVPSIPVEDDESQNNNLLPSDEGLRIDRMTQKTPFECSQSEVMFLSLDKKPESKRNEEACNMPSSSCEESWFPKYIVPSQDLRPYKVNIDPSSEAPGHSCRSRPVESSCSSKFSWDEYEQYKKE
UniProt P23458: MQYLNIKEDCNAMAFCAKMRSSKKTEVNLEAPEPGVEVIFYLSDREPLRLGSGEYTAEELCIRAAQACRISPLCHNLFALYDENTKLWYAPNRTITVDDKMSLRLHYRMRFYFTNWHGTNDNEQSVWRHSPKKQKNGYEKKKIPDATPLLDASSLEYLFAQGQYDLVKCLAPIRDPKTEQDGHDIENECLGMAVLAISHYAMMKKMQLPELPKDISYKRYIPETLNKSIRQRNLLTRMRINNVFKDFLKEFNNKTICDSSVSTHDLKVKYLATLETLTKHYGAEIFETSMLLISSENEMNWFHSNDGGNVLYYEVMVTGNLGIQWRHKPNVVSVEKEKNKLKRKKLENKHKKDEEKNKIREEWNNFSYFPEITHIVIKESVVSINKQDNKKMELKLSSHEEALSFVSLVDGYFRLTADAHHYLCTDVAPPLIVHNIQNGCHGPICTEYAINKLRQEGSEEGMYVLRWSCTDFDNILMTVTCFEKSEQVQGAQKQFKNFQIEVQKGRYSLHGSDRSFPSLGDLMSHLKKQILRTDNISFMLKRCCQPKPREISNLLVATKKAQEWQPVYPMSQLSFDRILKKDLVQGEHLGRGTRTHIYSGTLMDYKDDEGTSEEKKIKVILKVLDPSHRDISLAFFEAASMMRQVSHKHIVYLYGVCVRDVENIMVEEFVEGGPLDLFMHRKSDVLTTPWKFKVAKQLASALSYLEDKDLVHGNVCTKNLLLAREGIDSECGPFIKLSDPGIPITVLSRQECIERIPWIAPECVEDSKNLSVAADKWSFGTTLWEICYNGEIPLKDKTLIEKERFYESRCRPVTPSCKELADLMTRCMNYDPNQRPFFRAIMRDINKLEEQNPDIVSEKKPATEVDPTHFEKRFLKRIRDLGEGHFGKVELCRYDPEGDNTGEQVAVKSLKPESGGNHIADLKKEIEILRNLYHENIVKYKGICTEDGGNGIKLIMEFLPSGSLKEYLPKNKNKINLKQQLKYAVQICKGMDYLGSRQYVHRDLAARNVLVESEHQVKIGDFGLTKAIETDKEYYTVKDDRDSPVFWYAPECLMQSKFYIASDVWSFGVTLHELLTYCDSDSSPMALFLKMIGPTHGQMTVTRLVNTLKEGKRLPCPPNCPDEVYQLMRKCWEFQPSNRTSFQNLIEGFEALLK
UniProt P06239: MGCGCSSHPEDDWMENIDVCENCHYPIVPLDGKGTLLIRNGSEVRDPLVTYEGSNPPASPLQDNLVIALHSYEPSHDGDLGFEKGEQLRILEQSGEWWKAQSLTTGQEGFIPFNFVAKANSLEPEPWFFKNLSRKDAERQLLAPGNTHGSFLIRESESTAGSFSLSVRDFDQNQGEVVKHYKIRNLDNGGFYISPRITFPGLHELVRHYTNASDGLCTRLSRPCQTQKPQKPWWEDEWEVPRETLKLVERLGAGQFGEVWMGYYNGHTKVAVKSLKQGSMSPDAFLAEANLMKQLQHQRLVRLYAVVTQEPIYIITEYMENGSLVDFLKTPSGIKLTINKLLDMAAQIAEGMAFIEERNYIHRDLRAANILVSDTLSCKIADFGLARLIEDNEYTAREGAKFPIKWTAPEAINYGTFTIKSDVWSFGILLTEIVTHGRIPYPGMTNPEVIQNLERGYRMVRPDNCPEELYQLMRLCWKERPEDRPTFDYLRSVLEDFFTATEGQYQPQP
UniProt P53667: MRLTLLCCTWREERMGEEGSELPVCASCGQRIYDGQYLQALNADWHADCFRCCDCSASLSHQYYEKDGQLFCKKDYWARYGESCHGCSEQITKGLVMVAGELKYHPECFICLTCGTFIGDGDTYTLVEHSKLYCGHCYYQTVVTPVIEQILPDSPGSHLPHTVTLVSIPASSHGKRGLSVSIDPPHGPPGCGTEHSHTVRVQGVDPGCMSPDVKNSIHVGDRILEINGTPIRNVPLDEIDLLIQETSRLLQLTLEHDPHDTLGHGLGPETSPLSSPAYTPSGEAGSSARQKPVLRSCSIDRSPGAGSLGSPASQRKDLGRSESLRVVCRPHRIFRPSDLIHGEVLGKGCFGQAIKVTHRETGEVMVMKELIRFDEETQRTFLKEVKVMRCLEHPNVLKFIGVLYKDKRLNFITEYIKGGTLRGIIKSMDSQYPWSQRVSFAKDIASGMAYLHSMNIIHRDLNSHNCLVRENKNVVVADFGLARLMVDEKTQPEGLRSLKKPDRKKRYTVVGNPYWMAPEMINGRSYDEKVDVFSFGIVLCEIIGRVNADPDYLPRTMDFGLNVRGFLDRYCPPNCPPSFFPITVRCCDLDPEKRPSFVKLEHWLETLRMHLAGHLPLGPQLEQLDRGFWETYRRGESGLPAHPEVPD
UniProt P53671: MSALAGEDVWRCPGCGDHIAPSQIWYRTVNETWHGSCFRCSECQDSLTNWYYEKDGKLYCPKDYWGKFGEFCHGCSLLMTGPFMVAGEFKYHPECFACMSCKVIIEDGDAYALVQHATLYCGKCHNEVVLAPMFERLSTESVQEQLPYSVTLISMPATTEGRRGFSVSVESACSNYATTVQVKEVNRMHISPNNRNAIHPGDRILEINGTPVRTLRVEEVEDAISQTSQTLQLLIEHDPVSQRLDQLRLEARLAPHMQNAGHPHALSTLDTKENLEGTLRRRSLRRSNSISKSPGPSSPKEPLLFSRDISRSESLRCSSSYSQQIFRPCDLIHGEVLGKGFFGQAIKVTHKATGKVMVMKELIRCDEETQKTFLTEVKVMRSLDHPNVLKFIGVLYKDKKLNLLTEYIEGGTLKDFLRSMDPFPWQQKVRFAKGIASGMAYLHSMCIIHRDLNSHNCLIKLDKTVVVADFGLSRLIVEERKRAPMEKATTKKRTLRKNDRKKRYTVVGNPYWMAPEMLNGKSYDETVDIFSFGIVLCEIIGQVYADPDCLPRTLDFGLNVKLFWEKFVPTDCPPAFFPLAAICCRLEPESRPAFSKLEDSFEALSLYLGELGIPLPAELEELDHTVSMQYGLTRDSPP
UniProt Q8IWU2: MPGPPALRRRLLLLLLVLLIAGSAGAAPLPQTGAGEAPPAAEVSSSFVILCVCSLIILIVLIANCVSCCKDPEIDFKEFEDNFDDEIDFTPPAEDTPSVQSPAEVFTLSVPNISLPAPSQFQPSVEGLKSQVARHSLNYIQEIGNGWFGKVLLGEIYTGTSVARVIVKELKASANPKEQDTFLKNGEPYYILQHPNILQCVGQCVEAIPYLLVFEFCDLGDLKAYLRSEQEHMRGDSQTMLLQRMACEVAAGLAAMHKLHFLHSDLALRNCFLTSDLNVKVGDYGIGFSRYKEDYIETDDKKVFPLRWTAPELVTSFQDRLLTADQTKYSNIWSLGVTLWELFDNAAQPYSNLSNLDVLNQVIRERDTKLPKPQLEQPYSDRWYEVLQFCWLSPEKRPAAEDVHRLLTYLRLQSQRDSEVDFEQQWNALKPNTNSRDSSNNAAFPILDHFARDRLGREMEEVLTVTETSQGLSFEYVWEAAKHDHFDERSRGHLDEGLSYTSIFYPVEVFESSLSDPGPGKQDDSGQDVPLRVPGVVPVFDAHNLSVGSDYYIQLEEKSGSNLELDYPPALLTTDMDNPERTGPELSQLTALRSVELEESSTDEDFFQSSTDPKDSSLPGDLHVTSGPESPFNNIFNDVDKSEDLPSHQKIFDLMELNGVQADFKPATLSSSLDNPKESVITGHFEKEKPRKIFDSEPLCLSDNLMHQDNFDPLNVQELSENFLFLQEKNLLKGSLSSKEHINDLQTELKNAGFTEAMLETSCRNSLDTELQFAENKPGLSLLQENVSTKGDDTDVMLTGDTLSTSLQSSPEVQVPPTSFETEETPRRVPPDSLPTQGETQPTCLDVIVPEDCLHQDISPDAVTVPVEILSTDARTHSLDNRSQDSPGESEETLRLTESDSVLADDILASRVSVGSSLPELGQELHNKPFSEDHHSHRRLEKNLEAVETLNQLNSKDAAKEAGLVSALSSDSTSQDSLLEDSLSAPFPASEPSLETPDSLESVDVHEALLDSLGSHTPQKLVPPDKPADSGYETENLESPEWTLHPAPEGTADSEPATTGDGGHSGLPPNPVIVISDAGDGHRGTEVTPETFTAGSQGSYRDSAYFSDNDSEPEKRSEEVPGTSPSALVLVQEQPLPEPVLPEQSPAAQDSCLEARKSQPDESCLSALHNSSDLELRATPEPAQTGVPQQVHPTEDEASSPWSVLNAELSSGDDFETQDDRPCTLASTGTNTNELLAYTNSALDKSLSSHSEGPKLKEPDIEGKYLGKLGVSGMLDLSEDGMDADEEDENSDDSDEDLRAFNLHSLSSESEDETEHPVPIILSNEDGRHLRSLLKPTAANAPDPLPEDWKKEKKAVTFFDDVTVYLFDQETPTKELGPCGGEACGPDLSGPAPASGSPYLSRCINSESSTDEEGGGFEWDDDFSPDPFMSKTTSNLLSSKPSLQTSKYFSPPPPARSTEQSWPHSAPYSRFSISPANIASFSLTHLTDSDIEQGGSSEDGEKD
UniProt P07948: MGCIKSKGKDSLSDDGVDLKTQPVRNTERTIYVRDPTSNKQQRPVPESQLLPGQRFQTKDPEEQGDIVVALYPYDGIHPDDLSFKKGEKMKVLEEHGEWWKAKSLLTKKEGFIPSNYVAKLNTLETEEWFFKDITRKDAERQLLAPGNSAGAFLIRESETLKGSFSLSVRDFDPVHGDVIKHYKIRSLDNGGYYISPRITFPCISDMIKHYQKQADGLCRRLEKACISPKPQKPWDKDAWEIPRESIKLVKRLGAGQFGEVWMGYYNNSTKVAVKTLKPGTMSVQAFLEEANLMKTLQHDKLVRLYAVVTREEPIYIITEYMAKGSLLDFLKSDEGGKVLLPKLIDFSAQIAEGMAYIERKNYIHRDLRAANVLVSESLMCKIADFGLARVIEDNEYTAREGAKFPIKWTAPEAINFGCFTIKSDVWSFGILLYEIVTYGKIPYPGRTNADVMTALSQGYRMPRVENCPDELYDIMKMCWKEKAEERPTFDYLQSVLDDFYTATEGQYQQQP
UniProt Q12851: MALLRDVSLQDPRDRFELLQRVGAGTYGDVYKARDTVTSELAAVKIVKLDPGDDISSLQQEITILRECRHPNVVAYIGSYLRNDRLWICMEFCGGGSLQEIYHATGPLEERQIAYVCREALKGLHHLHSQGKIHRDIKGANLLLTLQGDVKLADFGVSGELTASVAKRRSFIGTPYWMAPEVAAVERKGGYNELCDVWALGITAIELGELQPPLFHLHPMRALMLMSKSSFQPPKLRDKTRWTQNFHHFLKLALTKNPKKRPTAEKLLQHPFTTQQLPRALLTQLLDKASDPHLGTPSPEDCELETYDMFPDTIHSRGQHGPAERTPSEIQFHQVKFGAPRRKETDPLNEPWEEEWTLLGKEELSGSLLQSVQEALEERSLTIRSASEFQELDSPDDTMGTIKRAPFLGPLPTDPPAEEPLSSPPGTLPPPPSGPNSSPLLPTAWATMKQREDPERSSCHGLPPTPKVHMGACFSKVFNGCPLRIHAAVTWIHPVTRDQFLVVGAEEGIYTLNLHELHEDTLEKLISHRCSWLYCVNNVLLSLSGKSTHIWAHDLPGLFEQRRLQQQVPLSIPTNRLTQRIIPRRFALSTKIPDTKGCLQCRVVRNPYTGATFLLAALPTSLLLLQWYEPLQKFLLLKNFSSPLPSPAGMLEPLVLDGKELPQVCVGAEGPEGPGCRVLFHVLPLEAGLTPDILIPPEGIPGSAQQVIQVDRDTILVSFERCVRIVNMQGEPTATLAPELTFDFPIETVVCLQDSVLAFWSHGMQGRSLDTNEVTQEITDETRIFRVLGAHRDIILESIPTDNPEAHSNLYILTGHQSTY

Columns and labels:
Assay in all cases: kinase-Nluc reporter destabilization hit call (1 = scored as downregulated) (binary); higher = compound decreases kinase abundance
Conditions in all cases: K562; 2-18 h
[1] = target: IRAK3 (UniProt Q9Y616)
[2] = target: JAK1 (UniProt P23458)
[3] = target: LCK (UniProt P06239)
[4] = target: LIMK1 (UniProt P53667)
[5] = target: LIMK2 (UniProt P53671)
[6] = target: LMTK2 (UniProt Q8IWU2)
[7] = target: LYN (UniProt P07948)
[8] = target: MAP2K1 (UniProt Q02750)
[9] = target: MAP2K2 (UniProt P36507)
[10] = target: MAP4K2 (UniProt Q12851)

Measured: kinase-Nluc reporter destabilization hit call

CC(C)=CC[C@@H](O)C1=CC(=O)c2c(O)ccc(O)c2C1=O [Shikonin] (10 µM)
inactive: [1] 0 | [2] 0 | [3] 0 | [4] 0 | [5] 0 | [6] 0 | [7] 0 | [8] 0 | [9] 0 | [10] 0

CC(C)Oc1ccc(F)c(-c2cnc(N)c(C(=O)Nc3cnccc3N3CCC[C@@H](C(=O)O)C3)n2)c1 (2 µM)
inactive: [1] 0 | [2] 0 | [3] 0 | [4] 0 | [5] 0 | [6] 0 | [7] 0 | [8] 0 | [9] 0 | [10] 0

Cc1cccc(COc2cccc(/C=C3\C(=O)NN(c4ccccc4)C3=O)c2)c1 (10 µM)
inactive: [1] 0 | [2] 0 | [3] 0 | [4] 0 | [5] 0 | [6] 0 | [7] 0 | [8] 0 | [9] 0 | [10] 0

Cc1cc(Nc2cc(N)ncn2)c(=O)n2c1C(=O)NC21CCCCC1 [Tomivosertib] (10 µM)
inactive: [1] 0 | [2] 0 | [3] 0 | [4] 0 | [5] 0 | [6] 0 | [7] 0 | [8] 0 | [9] 0 | [10] 0

Nc1ncc(C(=O)NC2CN(C(=O)C3CC3)C2)c2ccc(-c3cccc(F)c3)nc12 (2 µM)
inactive: [1] 0 | [2] 0 | [3] 0 | [4] 0 | [5] 0 | [6] 0 | [7] 0 | [8] 0 | [9] 0 | [10] 0

O=c1cc(N2CCOCC2)oc2c(-c3ccc4c(c3)OCCO4)csc12 (2.5 µM)
inactive: [1] 0 | [2] 0 | [3] 0 | [4] 0 | [5] 0 | [6] 0 | [7] 0 | [8] 0 | [9] 0 | [10] 0

Cc1ccc(C)c(OCCn2cc(C(=O)O)c3ccccc32)c1 (10 µM)
inactive: [1] 0 | [2] 0 | [3] 0 | [4] 0 | [5] 0 | [6] 0 | [7] 0 | [8] 0 | [9] 0 | [10] 0

N[C@@H]1CCCN(c2c(/C=C3\SC(=O)NC3=O)cccc2-c2ccccc2)C1 (10 µM)
inactive: [1] 0 | [2] 0 | [3] 0 | [4] 0 | [5] 0 | [6] 0 | [7] 0 | [8] 0 | [9] 0 | [10] 0

NCC1CCC(CNc2nc(NCc3ccccc3OC(F)(F)F)ncc2[N+](=O)[O-])CC1 (stereo not given) [PKC-theta inhibitor] (10 µM)
inactive: [1] 0 | [2] 0 | [3] 0 | [5] 0 | [6] 0 | [7] 0 | [8] 0 | [9] 0 | [10] 0
active: [4] 1

O=C1Nc2ccc(I)cc2/C1=C/c1cc(Br)c(O)c(Br)c1 (10 µM)
inactive: [1] 0 | [2] 0 | [3] 0 | [4] 0 | [5] 0 | [6] 0 | [7] 0 | [8] 0 | [9] 0 | [10] 0

c1ccc(Cn2c(-c3ccc(OC[C@H](C4CCNCC4)n4c(-c5ccccc5)nc5ccccc54)cc3)nc3ccccc32)cc1 [Deltarasin] (2.5 µM)
inactive: [1] 0 | [3] 0 | [4] 0 | [5] 0 | [6] 0 | [7] 0 | [8] 0 | [9] 0 | [10] 0
active: [2] 1

Fc1ccc2[nH]ccc2c1-c1nc(N2CCOCC2)c2sc(CN3CCN(CC4CC4)CC3)cc2n1 (10 µM)
inactive: [1] 0 | [2] 0 | [3] 0 | [4] 0 | [5] 0 | [6] 0 | [7] 0 | [8] 0 | [9] 0 | [10] 0

COC(=O)Nc1ccc(-c2nc(N3CCOCC3)c3cnn(C4CCN(C(=O)OC)CC4)c3n2)cc1 (10 µM)
inactive: [1] 0 | [2] 0 | [3] 0 | [4] 0 | [5] 0 | [6] 0 | [7] 0 | [8] 0 | [9] 0 | [10] 0

Among those listed so far, 2 have a thiophene ring, fused or not.
O=c1cc(N2CCOCC2)oc2c(-c3ccc4c(c3)OCCO4)csc12 (2.5 µM)
inactive: [1] 0 | [2] 0 | [3] 0 | [4] 0 | [5] 0 | [6] 0 | [7] 0 | [8] 0 | [9] 0 | [10] 0

Fc1ccc2[nH]ccc2c1-c1nc(N2CCOCC2)c2sc(CN3CCN(CC4CC4)CC3)cc2n1 (10 µM)
inactive: [1] 0 | [2] 0 | [3] 0 | [4] 0 | [5] 0 | [6] 0 | [7] 0 | [8] 0 | [9] 0 | [10] 0

Following part

Cc1ccc(C(=O)NC2CC2)cc1-n1ncc(C(=O)c2cccc(C#N)c2)c1N [Acumapimod] (10 µM)
inactive: [1] 0 | [2] 0 | [3] 0 | [4] 0 | [5] 0 | [6] 0 | [7] 0 | [8] 0 | [9] 0 | [10] 0

COCCOc1ccc2c(c1)ncn2-c1ccc2cccc(N3CCC(N)CC3)c2n1 (10 µM)
inactive: [1] 0 | [2] 0 | [3] 0 | [4] 0 | [5] 0 | [6] 0 | [7] 0 | [8] 0 | [9] 0 | [10] 0

C=CC(=O)N1CCN(C(=O)CNc2cc(I)c(Cl)cc2O)CC1 [K-Ras(G12C) inhibitor 12] (10 µM)
inactive: [1] 0 | [2] 0 | [3] 0 | [4] 0 | [5] 0 | [6] 0 | [7] 0 | [8] 0 | [9] 0 | [10] 0

C=CC(=O)Nc1cc(Nc2nccc(-c3cn(C)c4ccccc34)n2)c(OC)cc1N(C)CCNC [AZ7550 Mesylate] (2.5 µM)
inactive: [1] 0 | [2] 0 | [3] 0 | [4] 0 | [5] 0 | [6] 0 | [7] 0 | [8] 0 | [9] 0 | [10] 0

O=C1OC(/C=C/c2ccccc2)=NC/1=C\c1cccnc1 (10 µM)
inactive: [1] 0 | [2] 0 | [3] 0 | [4] 0 | [5] 0 | [6] 0 | [7] 0 | [8] 0 | [9] 0 | [10] 0

CC(O)(C#Cc1ccc2c(c1)N(c1nc(N)ncc1Cl)CC2)c1nccs1 (stereo not given) (2.5 µM)
inactive: [1] 0 | [2] 0 | [3] 0 | [4] 0 | [5] 0 | [6] 0 | [7] 0 | [8] 0 | [9] 0 | [10] 0

COc1cc(N2CCC(N3CCN(C)CC3)CC2)ccc1Nc1ncc(Cl)c(-c2c[nH]c3ccccc23)n1 (2.5 µM)
inactive: [1] 0 | [2] 0 | [3] 0 | [4] 0 | [5] 0 | [6] 0 | [7] 0 | [8] 0 | [9] 0 | [10] 0

COCCOCCc1c(C)c2cc(OC)c(O)c(C=O)c2oc1=O (10 µM)
inactive: [1] 0 | [2] 0 | [3] 0 | [4] 0 | [5] 0 | [6] 0 | [7] 0 | [8] 0 | [9] 0 | [10] 0

CC(C)n1c([C@H](C)Nc2ncnc(N)c2C#N)cc2cccc(-c3ccc(=O)n(C)c3)c2c1=O (10 µM)
inactive: [1] 0 | [2] 0 | [3] 0 | [4] 0 | [5] 0 | [6] 0 | [7] 0 | [8] 0 | [9] 0 | [10] 0

CO[C@H]1C[C@@H]2CC[C@@H](C)[C@@](O)(O2)C(=O)C(=O)N2CCCC[C@H]2C(=O)O[C@H]([C@H](C)C[C@@H]2CC[C@@H](OC(=O)C(C)(CO)CO)[C@H](OC)C2)CC(=O)[C@H](C)/C=C(\C)[C@@H](O)[C@@H](OC)C(=O)[C@H](C)C[C@H](C)/C=C/C=C/C=C/1C [Temsirolimus] (2.5 µM)
inactive: [1] 0 | [2] 0 | [3] 0 | [4] 0 | [5] 0 | [6] 0 | [7] 0 | [8] 0 | [9] 0 | [10] 0

NCCOc1ccc(Cl)cc1C(=O)Nc1ccc([N+](=O)[O-])cc1Cl [HJC0152 hydrochloride] (2 µM)
inactive: [1] 0 | [2] 0 | [3] 0 | [4] 0 | [5] 0 | [6] 0 | [7] 0 | [8] 0 | [9] 0 | [10] 0

Cc1nc[nH]c1CN1CCN(C(=O)N[C@@H](CC(C)C)C(=O)O)[C@@H](Cc2ccccc2)C1=O (10 µM)
inactive: [1] 0 | [2] 0 | [3] 0 | [4] 0 | [5] 0 | [6] 0 | [7] 0 | [8] 0 | [9] 0 | [10] 0

COc1cc(-c2cc(OP(=O)(O)O)cc(-c3cc(OC)c(OC)c(OC)c3)c2)cc(OC)c1OC [Stafia-1] (10 µM)
inactive: [1] 0 | [2] 0 | [3] 0 | [4] 0 | [5] 0 | [6] 0 | [7] 0 | [8] 0 | [9] 0 | [10] 0

Nc1[nH]nc2nc(-c3ccc(NS(=O)(=O)c4cc(Cl)ccc4Cl)cc3)cnc12 (10 µM)
inactive: [1] 0 | [2] 0 | [3] 0 | [4] 0 | [5] 0 | [6] 0 | [7] 0 | [8] 0 | [9] 0 | [10] 0

Nc1nccc(-c2c(-c3ccc(F)cc3)ncn2C2CCCCC2)n1 (10 µM)
inactive: [1] 0 | [2] 0 | [3] 0 | [4] 0 | [5] 0 | [6] 0 | [7] 0 | [8] 0 | [9] 0 | [10] 0

NC(=O)c1ccc(N(C(N)=O)c2c(F)cccc2F)nc1-c1ccc(F)cc1F (10 µM)
inactive: [1] 0 | [2] 0 | [3] 0 | [4] 0 | [5] 0 | [6] 0 | [7] 0 | [8] 0 | [9] 0 | [10] 0
